Here are results for one sequence from publication PMC11602137.

By UniProt entry, the sequences of proteins in these tests, tags left out.
UniProt Q9UL03, whole entry: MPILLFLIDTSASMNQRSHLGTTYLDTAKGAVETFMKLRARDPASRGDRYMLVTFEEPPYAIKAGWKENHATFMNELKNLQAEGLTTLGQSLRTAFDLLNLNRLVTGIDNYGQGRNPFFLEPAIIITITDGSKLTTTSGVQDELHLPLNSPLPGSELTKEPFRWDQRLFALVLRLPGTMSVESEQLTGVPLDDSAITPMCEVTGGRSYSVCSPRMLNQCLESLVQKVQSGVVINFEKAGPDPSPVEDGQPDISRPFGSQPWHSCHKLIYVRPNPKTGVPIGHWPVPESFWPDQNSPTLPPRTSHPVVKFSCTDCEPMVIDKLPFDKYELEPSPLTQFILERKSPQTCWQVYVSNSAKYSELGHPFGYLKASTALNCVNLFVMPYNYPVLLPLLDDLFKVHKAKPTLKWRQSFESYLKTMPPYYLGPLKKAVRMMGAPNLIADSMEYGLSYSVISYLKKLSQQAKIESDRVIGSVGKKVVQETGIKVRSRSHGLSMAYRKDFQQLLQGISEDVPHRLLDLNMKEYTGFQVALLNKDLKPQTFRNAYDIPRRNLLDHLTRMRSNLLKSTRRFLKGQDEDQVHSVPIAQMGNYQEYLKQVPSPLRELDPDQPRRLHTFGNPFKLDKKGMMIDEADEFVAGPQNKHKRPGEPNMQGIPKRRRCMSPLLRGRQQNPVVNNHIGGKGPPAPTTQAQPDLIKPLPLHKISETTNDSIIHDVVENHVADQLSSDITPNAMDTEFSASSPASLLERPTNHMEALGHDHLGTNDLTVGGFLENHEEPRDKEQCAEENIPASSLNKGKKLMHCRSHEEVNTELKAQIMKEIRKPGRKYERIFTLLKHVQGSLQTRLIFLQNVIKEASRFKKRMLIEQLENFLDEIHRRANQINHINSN

The series addresses INTS6 (UniProt Q9UL03). The series can be described thus: EMSA. The following applies: 5 mM Mg2+, length-dependent ssDNA binding; EMSA: 25 mM Tris-Cl pH 7.5, 1 mM DTT, 5 mM MgCl2, 100 mM NaCl, 20 min at 37 C; protein 22-167 nM, nucleic acid 10 nM; 7.5% native PAGE, 0.5x TBE, 4 C; recombinant protein; protein details: His6-MBP-Asn10-TEV (N-terminal); label: 5'-Cy3; single-stranded DNA. For orientation: Mobility shift assays separate free from complexed probe on a gel.

Construct, isoform or probe ends are uncertain for at least one entry. The comparison behind a weaker result is the experiment's own reference, which may not be listed here. At least one verdict was read from the data and is not stated in words by the source.

Turning to “GTGCCTTGCTAGGACATCTTT [21-mer ssDNA (pR630)]”, the binding result was “binds more weakly”.
